Here are results for one compound from PMC6491818, “Novel 4-Acrylamido-Quinoline Derivatives as Potent PI3K/mTOR Dual Inhibitors: The Design, Synthesis, and in vitro and in vivo Biological Evaluation” (Frontiers in Chemistry, 2019).

For orientation: CLint scaled means the capacity of the preparation to metabolise the compound, expressed as a volume cleared per time.

The nature of data set [1]: Liver microsomal stability assay, HLM. As to conditions: human, liver microsomes. (Microsomes from liver hold many membrane-bound enzymes, among them those of drug oxidation.)
The nature of data set [2]: Liver microsomal stability assay, RLM.

For the compound `CCCNCC(O)COc1ccccc1C(=O)CCc1ccccc1` (stereo not drawn) [Propafenone, reference compound], the intrinsic metabolic clearance (CLint scaled) in data set [1] came to 190 mL/min/kg; in data set [2] (Sprague-Dawley, rat, liver microsomes), 1180 mL/min/kg. In data set [2] (rat liver microsome, 60 min), the “RLM Remaining% (T = 60min)” value was determined as 0.3%.
